In patent publication US20260315454A1, “Use of quinoline-4-carboxylic acid in the preparation of anti-aging product as well as product for protecting liver and promoting liver regeneration” (Guangzhou Riju Trade Development Co., Ltd., priority 2023, published 2026):

Assays:
GS iPSC = assay: metabolomics of GS iPSC cells after freezing-rewarming; parameters: species or system thirteen-lined ground squirrel; conditions: endogenous metabolite
hamster liver = assay: metabolomics of hamster liver in cold storage-normothermic perfusion; parameters: species or system golden hamsters; conditions: endogenous metabolite

With `O=C(O)c1ccnc2ccccc12` [quinoline-4-carboxylic acid] the “content of quinoline-4-carboxylic acid in metabolome during rewarming” value (GS iPSC; 37° C. for 2 h after 4° C.) was “decreases during rewarming”, the “content of quinoline-4-carboxylic acid in metabolome during cold adaptation” value (GS iPSC; Hibernate-A medium, 4° C. for 4 h) was “increases during cold adaptation” and the “content of quinoline-4-carboxylic acid in liver metabolome during normothermic perfusion” value (hamster liver; 37° C. for 2 h after cold storage) was “decreases during normothermic perfusion”. For the same compound, the “content of quinoline-4-carboxylic acid in liver metabolome during cold storage” value (hamster liver; UW solution, 4° C. for 48 h) was “increases during cold storage”.
